Experimental data taken from patent US20230065495A1, “MULTIPARTITE AND CIRCULARLY PERMUTED BETA-BARREL POLYPEPTIDES AND METHODS FOR THEIR USE” (University of Washington, priority 2020, published 2023).
No constants are given. Whether binding was seen depends on the method and setting. Some results given as binding are weak or reduced against the parent protein; the word gives no strength. Tags and fused reporters may be left off the sequences shown. Blank lines part the entries; values can stand above or below the binder they belong to.

Legend:
[1] = target: T1, MBP-tagged split mFAP fragment m16 (β-strands 1-6 of mFAP2a); test: fluorescence complementation titration in excess DFHBI-1T
T1 chain: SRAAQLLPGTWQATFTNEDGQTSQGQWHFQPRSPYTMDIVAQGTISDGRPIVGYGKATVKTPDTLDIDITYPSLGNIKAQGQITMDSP

[2] = target: T1, MBP-tagged split mFAP fragment m16 …; test: β-barrel self-complementation assay (fluorescence of DFHBI-1T)
[3] = target: T1, MBP-tagged split mFAP fragment m16 …; test: titration of MBP-tagged m78 into fixed MBP-tagged m16 (16.8 µM) in 25.0 µM DFHBI-1T, fluorescence endpoint (n=1)
[4] = target: T2, MBP-tagged split mFAP fragment m8 (β-strand 8 of mFAP2a); test: split mFAP self-complementation, MBP-tagged fragments mixed equimolar with excess DFHBI-1T, fluorescence endpoint (n=3)
T2 sequence: RLTGTLQRQE

[5] = target: T3, MBP-tagged split mFAP fragment m78 (β-strands 7-8 of mFAP2a); test: as above
T3 sequence: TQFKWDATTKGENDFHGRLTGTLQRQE

[6] = target: T4, MBP-tagged split mFAP fragment m17 (β-strands 1-7 of mFAP2a); test: fluorescence complementation titration in excess DFHBI-1T
T4 chain: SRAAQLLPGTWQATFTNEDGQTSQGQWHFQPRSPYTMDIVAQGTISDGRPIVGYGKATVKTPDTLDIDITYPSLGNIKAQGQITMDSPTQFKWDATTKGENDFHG

[7] = target: T4, MBP-tagged split mFAP fragment m17 …; test: β-barrel self-complementation assay (fluorescence of DFHBI-1T)
[8] = target: T4, MBP-tagged split mFAP fragment m17 …; test: titration of MBP-tagged m8 into fixed MBP-tagged m17 (14.1 µM) in 25.0 µM DFHBI-1T, fluorescence endpoint (n=1)

binding [5]: binds
B2: MBP-tagged split mFAP fragment m16 (β-strands 1-6 of mFAP2a) (designed binder, not shown: large carriers)
chain: SRAAQLLPGTWQATFTNEDGQTSQGQWHFQPRSPYTMDIVAQGTISDGRPIVGYGKATVKTPDTLDIDITYPSLGNIKAQGQITMDSP

binding [6]: binds
binding [7]: binds
binding [8]: binds
Binder: RLTGTLQRQE (designed binder, not shown: large carriers) [MBP-tagged split mFAP fragment m8 (β-strand 8 of mFAP2a)]

Continued, binder first:

Binder: TQFKWDATTKGENDFHGRLTGTLQRQE (designed binder, not shown: large carriers) [MBP-tagged split mFAP fragment m78 (β-strands 7-8 of mFAP2a)]
binding [1]: binds
binding [2]: binds
binding [3]: binds

B1: MBP-tagged split mFAP fragment m17 (β-strands 1-7 of mFAP2a) (designed binder, not shown: large carriers)
chain: SRAAQLLPGTWQATFTNEDGQTSQGQWHFQPRSPYTMDIVAQGTISDGRPIVGYGKATVKTPDTLDIDITYPSLGNIKAQGQITMDSPTQFKWDATTKGENDFHG
binding [4]: binds
